According to doi:10.1101/772400:
No constants are given. Whether binding was seen depends on the method and setting. For part of these data: Binding seen in cells or lysates may run through a third protein. Some binding calls cover weakened binding; strength is not graded here. For part of these data: Tags and fused reporters may be left off the sequences shown.

Chains of the proteins cited; added tags and fusions are not shown.
UniProt O22467: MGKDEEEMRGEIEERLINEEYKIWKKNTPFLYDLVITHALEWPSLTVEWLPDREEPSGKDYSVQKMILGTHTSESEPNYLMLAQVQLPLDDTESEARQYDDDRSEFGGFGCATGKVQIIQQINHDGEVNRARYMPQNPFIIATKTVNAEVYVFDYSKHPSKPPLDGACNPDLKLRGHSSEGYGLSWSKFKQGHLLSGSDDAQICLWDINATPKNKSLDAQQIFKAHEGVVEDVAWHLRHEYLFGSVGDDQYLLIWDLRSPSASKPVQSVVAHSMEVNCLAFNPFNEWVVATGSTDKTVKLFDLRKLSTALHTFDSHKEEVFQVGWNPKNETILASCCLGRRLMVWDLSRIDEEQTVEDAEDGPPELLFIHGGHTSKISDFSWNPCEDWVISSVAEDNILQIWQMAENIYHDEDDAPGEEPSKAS
UniProt Q9FGD1: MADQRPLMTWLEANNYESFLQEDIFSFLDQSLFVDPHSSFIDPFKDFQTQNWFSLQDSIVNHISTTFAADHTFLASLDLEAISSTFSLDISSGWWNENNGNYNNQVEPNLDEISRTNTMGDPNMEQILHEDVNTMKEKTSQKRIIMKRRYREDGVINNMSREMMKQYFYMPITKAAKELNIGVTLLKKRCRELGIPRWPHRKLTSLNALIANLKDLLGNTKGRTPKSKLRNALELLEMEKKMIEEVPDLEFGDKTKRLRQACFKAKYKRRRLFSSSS
UniProt Q9FIM4: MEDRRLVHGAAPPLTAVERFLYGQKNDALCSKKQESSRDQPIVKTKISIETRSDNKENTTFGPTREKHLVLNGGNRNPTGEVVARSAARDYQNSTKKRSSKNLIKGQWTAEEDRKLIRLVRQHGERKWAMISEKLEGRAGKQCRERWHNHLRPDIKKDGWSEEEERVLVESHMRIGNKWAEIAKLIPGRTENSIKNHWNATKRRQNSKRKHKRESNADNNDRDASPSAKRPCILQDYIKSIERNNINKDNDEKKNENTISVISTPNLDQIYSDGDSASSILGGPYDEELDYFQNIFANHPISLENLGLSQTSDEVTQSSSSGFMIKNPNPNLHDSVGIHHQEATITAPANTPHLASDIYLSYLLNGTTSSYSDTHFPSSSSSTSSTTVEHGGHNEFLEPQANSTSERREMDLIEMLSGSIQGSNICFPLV
UniProt Q9FY60: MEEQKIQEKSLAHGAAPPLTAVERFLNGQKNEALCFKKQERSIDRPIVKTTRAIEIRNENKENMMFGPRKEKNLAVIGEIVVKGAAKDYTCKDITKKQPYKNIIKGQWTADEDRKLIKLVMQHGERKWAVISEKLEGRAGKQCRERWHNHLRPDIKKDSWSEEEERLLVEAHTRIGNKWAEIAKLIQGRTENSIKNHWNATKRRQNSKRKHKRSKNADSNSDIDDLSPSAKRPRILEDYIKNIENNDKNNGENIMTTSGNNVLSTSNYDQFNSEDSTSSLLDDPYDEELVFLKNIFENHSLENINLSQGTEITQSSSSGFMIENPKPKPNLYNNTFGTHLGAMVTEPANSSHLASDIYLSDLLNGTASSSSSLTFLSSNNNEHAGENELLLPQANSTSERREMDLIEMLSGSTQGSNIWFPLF
UniProt Q9M9U9: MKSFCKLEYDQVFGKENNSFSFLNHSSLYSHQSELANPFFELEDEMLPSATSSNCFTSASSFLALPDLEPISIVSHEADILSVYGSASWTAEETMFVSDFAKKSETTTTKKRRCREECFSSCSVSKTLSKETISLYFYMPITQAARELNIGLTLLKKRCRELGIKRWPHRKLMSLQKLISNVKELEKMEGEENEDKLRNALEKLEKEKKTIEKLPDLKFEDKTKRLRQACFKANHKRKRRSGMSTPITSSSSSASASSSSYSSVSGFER
UniProt Q9CA66: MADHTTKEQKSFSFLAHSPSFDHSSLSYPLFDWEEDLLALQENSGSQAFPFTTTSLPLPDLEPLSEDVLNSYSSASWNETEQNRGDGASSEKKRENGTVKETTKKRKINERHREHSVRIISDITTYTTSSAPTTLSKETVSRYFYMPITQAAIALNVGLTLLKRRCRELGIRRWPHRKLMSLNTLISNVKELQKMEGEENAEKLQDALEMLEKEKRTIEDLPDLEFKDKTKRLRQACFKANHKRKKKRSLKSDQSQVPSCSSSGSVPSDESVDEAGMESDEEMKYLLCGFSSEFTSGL

The substances below were run against T1, RETINOBLASTOMA RELATED (RBR), LexA two-hybrid bait (Arabidopsis (accession Col-0)) (UniProt Q9LKZ3) (assay: two-hybrid).
T1 sequence: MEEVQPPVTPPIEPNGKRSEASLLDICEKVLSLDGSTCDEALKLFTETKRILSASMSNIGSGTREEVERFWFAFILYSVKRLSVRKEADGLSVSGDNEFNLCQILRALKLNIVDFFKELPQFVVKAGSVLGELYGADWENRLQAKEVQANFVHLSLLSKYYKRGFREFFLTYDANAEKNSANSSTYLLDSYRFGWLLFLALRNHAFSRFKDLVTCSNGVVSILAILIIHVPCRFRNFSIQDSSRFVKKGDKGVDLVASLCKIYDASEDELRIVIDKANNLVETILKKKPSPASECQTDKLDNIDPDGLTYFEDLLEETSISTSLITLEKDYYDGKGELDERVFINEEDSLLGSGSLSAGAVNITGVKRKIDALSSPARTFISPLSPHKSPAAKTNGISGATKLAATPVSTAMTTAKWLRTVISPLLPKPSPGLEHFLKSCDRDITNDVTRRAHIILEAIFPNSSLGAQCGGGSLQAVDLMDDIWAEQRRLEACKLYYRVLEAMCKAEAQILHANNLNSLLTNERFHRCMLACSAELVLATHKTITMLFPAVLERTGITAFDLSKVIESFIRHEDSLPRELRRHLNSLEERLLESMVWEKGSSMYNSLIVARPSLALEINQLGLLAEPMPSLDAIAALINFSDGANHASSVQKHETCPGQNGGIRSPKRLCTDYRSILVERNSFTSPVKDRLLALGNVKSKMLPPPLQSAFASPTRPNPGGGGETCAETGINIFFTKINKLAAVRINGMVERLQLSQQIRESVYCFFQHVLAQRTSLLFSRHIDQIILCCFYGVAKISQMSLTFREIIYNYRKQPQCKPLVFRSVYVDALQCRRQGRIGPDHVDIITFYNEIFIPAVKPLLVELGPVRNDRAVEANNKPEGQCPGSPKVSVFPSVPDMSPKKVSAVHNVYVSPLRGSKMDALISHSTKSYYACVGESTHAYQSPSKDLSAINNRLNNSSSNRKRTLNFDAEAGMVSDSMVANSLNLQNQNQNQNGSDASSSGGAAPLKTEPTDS
In the case of “MULTI-SUPRESSOR-OF-IRA 1 (MSI1), two-hybrid prey (from UniProt O22467 1-424)”, the binding is reported as “binds”. In the case of “RKD3 (RWP-RK domain-containing 3), two-hybrid prey (from UniProt Q9FGD1 1-277)”, the binding is reported as “binds”. With “MYB119, two-hybrid prey (from UniProt Q9FIM4 1-430)” the binding was “binds”. In the case of “MYB64, two-hybrid prey (from UniProt Q9FY60 1-423)”, the binding is reported as “binds”.

These substances were tested against T2, C-Ven-RBR (RETINOBLASTOMA RELATED fused to C-Venus for BiFC) (Arabidopsis (accession Col-0)) (UniProt Q9LKZ3) (assay: split reporter).
T2 sequence: T1 sequence
For “N-Ven-MYB64 (BiFC fusion) (from UniProt Q9FY60 1-423)”, the binding was “binds”. In the case of “N-Ven-RKD1 (BiFC fusion) (from UniProt Q9M9U9 1-269)”, the binding is reported as “binds”. With “N-Ven-RKD2 (BiFC fusion) (from UniProt Q9CA66 1-298)” the binding was “binds”. In the case of “N-Ven-MYB119 (BiFC fusion) (from UniProt Q9FIM4 1-430)”, the binding is reported as “binds weakly”. “N-Ven-RKD3 (BiFC fusion) (from UniProt Q9FGD1 1-277)” was tested, and the binding was “binds”.
